Literature values, collected in patent US10869878B2, “Vaginal composition and use thereof” (SINGAPORE ZE&Z INTERNATIONAL PTE. LTD, priority 2014, dated 2020).
At least one compound was matched to its structure with a doubt left. Some results were stated once for a whole list of compounds, not compound by compound.

Tested on: BV
Settings: BV patients; cited from earlier work

Compound | cure rate | recurrence rate
CCC[C@@H]1C[C@@H](C(=O)N[C@@H]([C@H]2O[C@H](SC)[C@H](O)[C@@H](O)[C@H]2O)[C@H](C)Cl)N(C)C1 [clindamycin] | about 60% | 30-40%
Cc1ncc([N+](=O)[O-])n1CCO [metronidazole] |  | 30-40%
